Laboratory results as given in patent US7276370 (DONALD DANFORTH PLANT SCIENCE CENTER, dated 2007).
No constants are given. Whether binding was seen depends on the method and setting. Some entries that bind do so weakly or less than the wild type.

Columns and labels:
[1] = target: 3Δ mutant of Rf2a (rice (Oryza sativa)) (UniProt Q69IL4); assay: EMSA, E. coli protein extract with 32P-labeled BoxIIml DNA probe; homodimer inferred from the shifted band
[2] = target: Rf2a transcription factor (rice (Oryza sativa)) (UniProt Q69IL4); assay: EMSA, equimolar Rf2a and 3Δ with 32P-labeled BoxIIml DNA probe; band of intermediate mobility
[3] = target: Rf2a transcription factor (rice (Oryza sativa)) (UniProt Q69IL4); assay: EMSA with BoxIIml DNA probe
[4] = target: 3Δ mutant of Rf2a (rice (Oryza sativa)) (UniProt Q69IL4); assay: EMSA with BoxIIml DNA probe

Measured: binding

B1: 3Δ mutant of Rf2a (protein)
chain: ESSSAAAHGARPKHQHSLSMDESMSIKAEELVGASPGTEGMSSAEAKKAVSAVKLAELALVDPKRAKRIWANRQSAARSKERKMRYIAELERKVQTLQTEATTLSAQLALLQRDTSGLTTENSELKLRLQTMEQQVHLQDALNDTLKSEVQRLKVATGQMANGGGMMMNFGGMPHQ
binds: all assays above
